Source: PubChem BioAssay AID588398 (Broad Institute, 2011)
In all, about 1,200 compounds went through this assay and about 110 (9.2%) were called active. About 8% were inconclusive and are not listed.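 How the source made its calls: active means pathway reporter half-maximal dose under half the control reporter's, or control reporter unaffected while pathway reporter is inhibited; inconclusive means either signal flat at 30 to 70% inhibition or poorly fitted; inactive means the rest.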 Only a part is listed here, and it is no random draw. Measured potencies and affinities stand elsewhere.

Assay: TES1-eGFP NF-kB reporter inhibition versus Tet-On dsRED, dose response, selectivity assay for LMP1 NF-kB inhibitor project, imaging, HEK293T, dual-color eGFP/dsRED, cherry-picks (AID 588398);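 further: 0% = median of neutral control wells and -100% = median of MG132 positive control wells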
Details: 48 h; HEK293T Tet-On dsRED counter-screen channel, at 19.5 µM (top of the series) unless noted

SMILES	activity change, negative = inhibition
Cc1ccc2[nH]c3c(c2c1)CCCC3NC(=O)CCl (stereo unspecified)	inactive: -99.7%
COc1ccc(OC)c2[nH]c(=O)c(CCNC(=O)c3ccc(S(=O)(=O)N(C)C)cc3)cc12	inactive: 5.12%
COc1ccc(-c2csc3ncnc(NCCCO)c23)cc1	inactive: -88%
COc1ccc(S(=O)(=O)NCC(c2cccnc2)N2CCN(c3ccc(F)cc3)CC2)cc1C (stereo unspecified)	inactive: -17.3%
O=C(CN1CCN(S(=O)(=O)c2ccc(F)cc2)CC1)Nc1cccc(C(F)(F)F)c1	inactive: 2%
COc1ccccc1C1(CC(=O)O)CCOC(C)(C)C1 (stereo unspecified)	inactive: -4.27%
COc1ccc(OC)c(CCNC(=O)CCn2nc(C)c3c(C)n(-c4ccccc4)nc3c2=O)c1	inactive: 33%
COc1cccc(/C=N\NC(=O)c2ccc(C)nc2)c1	inactive: 1.79%
CCOC(=O)c1nc(NCc2ccccc2F)c2ccccc2n1	inactive: -11.5%
CNC(=O)c1[nH]cnc1C(=O)N[C@@H](CCCCNC(=O)OC(C)(C)C)C(=O)OC(C)(C)C	inactive: 13.2%
COc1ccc(N2C(=O)C(Cl)=C(NCc3ccccc3)C2=O)cc1	inactive: -1.67%
Nc1ccccc1SC1CC(=O)N(c2ccccc2Cl)C1=O (stereo unspecified)	inactive: 11.7%
CCC(=O)NC(c1ccc(Cl)cc1Cl)c1ccc2cccnc2c1O (stereo unspecified)	inactive: -96.5%
Cc1ccc(NS(=O)(=O)c2ccc(NC(=O)C(C)Sc3ccc(Cl)cc3)cc2)c(C)c1 (stereo unspecified)	inactive: 11.4%
CCc1ccccc1N(CC(=O)NCc1ccco1)C(=O)c1snc(C(N)=O)c1N	inactive: -0.253%
COc1ccc(/C=C2\SC(=O)N(CCCC(=O)Nc3ccc(C(=O)O)cc3)C2=O)cc1	inactive: 9.66%
C(=Cc1cnc2ccccc2n1)c1ccc2c(c1)OCO2	inactive: 7.85%
CC1=C(C)C(OCCCl)N(c2cc(O)c(Cl)cc2F)C1=O (stereo unspecified)	inactive: 1.07%
Cc1ccc(C(=O)Nc2ccc3ncccc3c2)cc1	inactive: -2.36%
CCc1c(C)nc2cc(-c3ccc(OC)c(OC)c3)nn2c1NCC1CC1	inactive: 53.3%
CCOc1cccc(CNc2nnnn2C)c1	inactive: 6.94%
Cc1ccc(NC(=S)N=Nc2c(O)n(C)c3ccc(S(=O)(=O)N4CCOCC4)cc23)cc1	inactive: 11.2%
COc1cc(CC(=O)N(c2ccccc2)c2nc(C)cs2)cc(OC)c1OC	inactive: 13.9%
CCc1nnc(NC(=O)c2cc(S(=O)(=O)N3CCN(CC)CC3)ccc2Cl)s1	inactive: 26.4%
O=C(Nc1ccncc1)OCc1ccccc1	inactive: 17.6%
CCn1c(CCNC(=O)c2ccc(OC)cc2)nnc1SCc1ccc(Cl)cc1Cl	inactive: 2.4%

A few values from the results shown.
CCOc1cccc(CNc2nnnn2C)c1 | activity change, negative = inhibition: inactive: 6.94%
COc1ccc(N2C(=O)C(Cl)=C(NCc3ccccc3)C2=O)cc1 | activity change, negative = inhibition: inactive: -1.67%
CNC(=O)c1[nH]cnc1C(=O)N[C@@H](CCCCNC(=O)OC(C)(C)C)C(=O)OC(C)(C)C | activity change, negative = inhibition: inactive: 13.2%
COc1ccc(S(=O)(=O)NCC(c2cccnc2)N2CCN(c3ccc(F)cc3)CC2)cc1C (stereo unspecified) | activity change, negative = inhibition: inactive: -17.3%
COc1ccccc1C1(CC(=O)O)CCOC(C)(C)C1 (stereo unspecified) | activity change, negative = inhibition: inactive: -4.27%

Later entries.

SMILES	activity change, negative = inhibition
Cc1ccc(-c2nnn(CC(=O)N(Cc3ccco3)C(C(=O)NC(C)(C)C)c3ccncc3)n2)o1 (stereo unspecified)	inactive: -5.13%
NC(=O)C1(Nc2ccc([N+](=O)[O-])cc2)CCCC1	inactive: -2.27%
O=C(Cc1ccc(Cl)cc1)NCC(=O)N1CCCCC1	inactive: -3.68%
COc1cccc(/C=C/c2ccc3ccccc3n2)c1OC(C)=O	inactive: -18.3%
COc1ccc(OC)c(S(=O)(=O)NC(C)CCc2ccccc2)c1 (stereo unspecified)	inactive: -0.41%
O=[N+]([O-])c1ccc(O)c(/C=N/Nc2ncnc3c2cnn3-c2ccccc2)c1	inactive: 0.818%
CCC(=O)NC(=S)Nc1ccccc1C(F)(F)F	inactive: -9.66%
O=C(CC(c1ccc(F)cc1)c1ccco1)N1CCOCC1 (stereo unspecified)	inactive: 17.5%
Cc1cc(N=Cc2c(O)ccc3cc(Br)ccc23)no1	inactive: -10.7%
COC(CNC(=O)c1ccc(N2CCC3(CC2)OCCO3)c([N+](=O)[O-])c1)OC	inactive: 18.1%
Cc1ccc(NC(=O)/C=N/OCC(=O)NCc2ccccc2Cl)cc1	inactive: -5.76%
Nc1cc(=O)[nH]c(SCCSc2cc(Cl)ccc2Cl)n1	inactive: 20.7%
NC(=O)N/N=C/c1ccc(N2CCOCC2)s1	inactive: 6.52%
COc1ccc(-c2nc(C)ncc2-c2ccccc2)c(O)c1	inactive: 3.95%
COc1ccc(-c2ccc3c(c2)S(=O)(=O)c2cccc(C(=O)NCc4cc(C)oc4C(F)(F)F)c2C3=O)cc1OC	inactive: 6.54%
COC(=O)c1ccc(CSc2nc3c(c(=O)n2-c2ccc(C)cc2)SCC3)o1	inactive: 41.4%
Cc1ccc(CNC(=O)C(=O)NCC2OCCN2S(=O)(=O)c2ccc(Cl)cc2)cc1 (stereo unspecified)	inactive: 10.6%
Cc1nc(SCC(=O)c2cccc([N+](=O)[O-])c2)n[nH]1	inactive: -8.68%
CCOC(=O)N1CCN(C(=O)C2CCC(=O)N(Cc3ccccc3OC)C2)CC1 (stereo unspecified)	inactive: 2.7%
O=C(O)/C=C/c1ccc2ccccc2n1	inactive: -37.2%
CCNc1ccc(Br)cc(C(=O)/C=C/c2ccccc2Cl)c1=O	inactive: 52.4%
CC(C)(C)c1cc(C(=O)NNC(=O)Nc2cccc(Cl)c2)n(Cc2ccccc2)n1	inactive: -6.62%
COCCn1c(SCc2ccc(C(=O)OC)o2)nnc1-c1c[nH]c2ccccc12	inactive: 1.81%
CCOc1ccc(OCc2cccc(C(=O)N3CCCC3)c2)cc1	inactive: 31.9%
COc1ccc2cc(C(N)=O)/c(=N\NC(=O)c3ccccc3)oc2c1	inactive: -14.7%
Oc1ccccc1C=NN=Cc1c(O)ccc2ccccc12	inactive: 8.98%

SMILES	activity change, negative = inhibition
COc1cccc(-c2nnc(NC(=O)c3ccc(S(=O)(=O)N(CC(C)C)CC(C)C)cc3)o2)c1	inactive: -4.01%
Cc1cccn2c(=O)c(C=NCCO)c(NCc3ccco3)nc12	inactive: 8.58%
COCC(=O)N(C)c1nnc(-c2ccccn2)s1	inactive: -8.28%
COc1ccc(CN2C(=O)c3cccnc3C2Nc2cc(Cl)ccc2OC)cc1 (stereo unspecified)	inactive: 22.8%
CCSc1nc2ccc(OC)cc2cc1C#N	inactive: 5.68%
CCn1c2ccccc2c2cc(/C=N/NC(=O)c3cc(O)cc(O)c3)ccc21	inactive: -72.5% [HEK293T LMP1 TES1-eGFP reporter, at 6.8 µM]
CC(C(=O)N=Nc1c(O)[nH]c2ccccc12)n1cnc2ccccc2c1=O (stereo unspecified)	inactive: 2.17%
O=S(=O)(N/N=C/c1ccccc1F)c1ccccc1	inactive: 4.33%
CC(C)(C)c1ccc(Cn2c(=O)cnc3ccccc32)cc1	inactive: -5.17%
C[C@@]12C(=O)N(Cc3ccccc3)CC(=O)N1[C@H](/C=C/c1ccccc1)[C@@H]1C(=O)N(c3ccccc3)C(=O)[C@@H]12	inactive: 7.86%
O=C(O)c1c2c(nc3ccccc13)/C(=C/c1ccc(O)cc1)CC2	inactive: -0.558%
CCCCCCc1cc2cc(-c3nnc(-c4ccccc4)o3)c(=O)oc2cc1O	inactive: 17.2%
O=C(O)c1ccc(N/N=C/c2cc3cc4c(cc3nc2Cl)OCCO4)cc1	inactive: 13.8%
Cc1cnc(NC(=O)c2ccccn2)s1	inactive: 9%
O=C(COC(=O)c1cc2ccccc2cc1O)NCc1ccccc1	inactive: 6%
COc1cc(/C=C(\C#N)c2ccccn2)ccc1OCc1ccccc1Cl	inactive: 9.75%
COC(=O)c1c(O)ccc(Oc2ccccc2)c1C(=O)OC	inactive: 2.56%
Cc1[nH]n(-c2ccc(Br)cc2)c(=O)c1/C=N/NC(=O)c1ccccc1	inactive: -87.3%
NC(=S)N/N=C/c1ncc(C(F)(F)F)cc1Cl	inactive: -95.1%
COc1ccc(C(Nc2ccccn2)c2oc(CO)cc(=O)c2O)cc1 (stereo unspecified)	inactive: -3.88%
C=CCN(c1ccc(C(=O)Nc2ccc3c(c2)n(C)c(=O)n3C)cc1)S(C)(=O)=O	inactive: 59.9%
CCC(C)N1C(=O)CCC1C(=O)N1CCN(c2ccc(F)cc2)CC1 (stereo unspecified)	inactive: 13%
COc1ccc(C(=O)Nc2nnc(SCC(=O)NC3CC3)s2)cc1	inactive: 5.05%
CCSC1=C(C#N)C(c2ccc(C)o2)CC(=O)N1 (stereo unspecified)	inactive: -5.14%
COc1ccc(-c2csc3ncnc(Sc4nnnn4C)c23)cc1	inactive: -83.6%
O=C(O)c1ccc(N/N=C/c2ccc3ncccc3c2)cc1	inactive: -2.02%

SMILES	activity change, negative = inhibition
COc1ccc(O)c(/C=N/NC(=O)c2ccc(OCc3cccc(Br)c3)cc2)c1	inactive: 22.7%
O=C1C=Cc2cccc3ccc(O)c1c23	inactive: -25.7%
C[C@H](CO)N1C[C@H](C)[C@@H](CN(C)C(=O)NC2CCCCC2)Oc2c(NS(=O)(=O)c3cn(C)cn3)cccc2C1=O	inactive: 16.4%
CC[C@]1(C(=O)OC)[C@H]2C(=O)N(Cc3ccccc3)C(=O)[C@H]2[C@H]2CN=C(SCc3ccc(C#N)cc3)N21	inactive: -100%
COc1ccccc1-c1ccccc1C1=CC(=O)CC(C)(C)C1=O	inactive: 7.03%
O=C(O)CCc1nc(-c2ccc(Cl)cc2)no1	inactive: -6.77%
CCSc1nnc(NC(=O)CCn2c(=O)oc3ccccc32)s1	inactive: 0.664%
COc1ccc(C=C2CS(=O)(=O)CC(=Cc3ccc(OC)cc3)C2=O)cc1	inactive: -98.7%
CSCCC(NC(=O)c1ccco1)C(=O)OCC(=O)Nc1ncc(Cl)c(C)c1Cl (stereo unspecified)	inactive: -0.497%
Oc1ccc(C=NNC(=S)Nc2ccccc2)nc1	inactive: -90.2%
COc1ccc(-c2oc3ncnc(NCCN4CCOCC4)c3c2-c2ccc(OC)cc2)cc1	inactive: -6.05%
Cc1nc(C)n(C(C)CNC(=O)c2ccco2)n1 (stereo unspecified)	inactive: -2.14%
CCOCCCNC(=O)CN1C(=O)/C(=C\c2ccc(C)cc2)Sc2ccccc21	inactive: 6.45%
CCN(CC)S(=O)(=O)c1ccc(N=NC2=C(O)CCCC2=O)cc1	inactive: 6.44%
CC1(C)CN(Cc2ccccc2)C(=O)[C@H]1CC(=O)Nc1ccccc1	inactive: 5.59%
O=S(=O)(NC1c2cccc3cccc(c23)C1Sc1ncccn1)c1ccccc1 (stereo unspecified)	inactive: 18%
COc1cc(/C=N/NC(=O)c2cccc(S(=O)(=O)N3CCOCC3)c2)cc(OC)c1O	inactive: 4.28%
CS(=O)(=O)N(CC(=O)Nc1ccc(F)cc1F)C1CCCCC1	inactive: 1.2%
CN(Cc1ccc(F)cc1)C(=O)CN1CCN(S(=O)(=O)c2ccc3c(c2)OCCCO3)CC1	inactive: 16.5%
CSc1oc(-c2ccc(F)cc2)nc1S(=O)(=O)c1ccc(F)cc1	inactive: 0.061%
CC(CCc1ccco1)N(C)S(=O)(=O)c1csc(C(N)=O)c1 (stereo unspecified)	inactive: 14%
CC(=O)c1c(C)[nH]c(C(=O)Nc2ccc(C)cn2)c1C	inactive: 39.2%
Cc1nn(CCCC(=O)Nc2cccnc2Cl)c(C)c1[N+](=O)[O-]	inactive: 10.8%
